Data taken from article PMC11166458, “Caskin2 is a novel talin- and Abi1-binding protein that promotes cell motility” (Journal of Cell Science, 2024).
These are yes or no findings as the source states them, for the method shown. Binding seen in cells or lysates may run through a third protein. These calls come from enrichment with a bait or labelling near it, and not all partners need be listed.

Sequences of proteins named here, by UniProt entry; tags and fusion partners are left off. A change or cut given only in a name is not applied to a line headed by its entry. A line that says so, or that is headed by a name, gives the form on record, which may keep a tag or linker.
UniProt Q8WXE0: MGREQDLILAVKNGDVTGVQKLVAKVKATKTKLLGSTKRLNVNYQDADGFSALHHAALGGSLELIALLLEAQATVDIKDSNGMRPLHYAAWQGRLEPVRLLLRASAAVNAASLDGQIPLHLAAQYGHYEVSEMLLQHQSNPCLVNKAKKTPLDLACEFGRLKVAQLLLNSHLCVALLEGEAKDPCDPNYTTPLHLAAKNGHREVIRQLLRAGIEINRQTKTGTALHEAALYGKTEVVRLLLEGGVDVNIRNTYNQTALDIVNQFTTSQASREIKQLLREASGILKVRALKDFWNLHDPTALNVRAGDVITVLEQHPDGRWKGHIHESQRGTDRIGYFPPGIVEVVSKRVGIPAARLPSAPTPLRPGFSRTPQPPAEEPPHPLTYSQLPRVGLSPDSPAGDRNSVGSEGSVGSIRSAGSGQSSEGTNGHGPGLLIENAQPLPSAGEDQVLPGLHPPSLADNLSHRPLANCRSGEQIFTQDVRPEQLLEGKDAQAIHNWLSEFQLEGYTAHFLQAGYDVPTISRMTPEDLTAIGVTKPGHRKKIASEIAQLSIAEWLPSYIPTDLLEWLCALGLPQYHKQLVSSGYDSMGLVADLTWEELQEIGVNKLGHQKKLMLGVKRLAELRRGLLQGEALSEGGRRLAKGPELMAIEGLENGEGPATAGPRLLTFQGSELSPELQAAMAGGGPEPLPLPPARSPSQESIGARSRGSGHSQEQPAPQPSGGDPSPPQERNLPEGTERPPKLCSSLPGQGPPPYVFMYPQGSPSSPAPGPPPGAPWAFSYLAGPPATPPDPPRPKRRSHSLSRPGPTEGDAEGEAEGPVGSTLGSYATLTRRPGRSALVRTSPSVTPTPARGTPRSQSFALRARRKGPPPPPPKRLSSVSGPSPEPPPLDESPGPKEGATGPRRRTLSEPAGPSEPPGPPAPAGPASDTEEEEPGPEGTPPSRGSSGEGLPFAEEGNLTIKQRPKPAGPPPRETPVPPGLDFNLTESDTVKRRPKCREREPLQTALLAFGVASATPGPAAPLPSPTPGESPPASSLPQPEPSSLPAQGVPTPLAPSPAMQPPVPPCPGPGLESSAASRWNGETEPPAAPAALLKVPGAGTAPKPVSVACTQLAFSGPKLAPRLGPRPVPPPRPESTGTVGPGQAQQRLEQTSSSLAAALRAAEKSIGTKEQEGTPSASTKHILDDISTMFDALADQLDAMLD
UniProt Q9NYB9: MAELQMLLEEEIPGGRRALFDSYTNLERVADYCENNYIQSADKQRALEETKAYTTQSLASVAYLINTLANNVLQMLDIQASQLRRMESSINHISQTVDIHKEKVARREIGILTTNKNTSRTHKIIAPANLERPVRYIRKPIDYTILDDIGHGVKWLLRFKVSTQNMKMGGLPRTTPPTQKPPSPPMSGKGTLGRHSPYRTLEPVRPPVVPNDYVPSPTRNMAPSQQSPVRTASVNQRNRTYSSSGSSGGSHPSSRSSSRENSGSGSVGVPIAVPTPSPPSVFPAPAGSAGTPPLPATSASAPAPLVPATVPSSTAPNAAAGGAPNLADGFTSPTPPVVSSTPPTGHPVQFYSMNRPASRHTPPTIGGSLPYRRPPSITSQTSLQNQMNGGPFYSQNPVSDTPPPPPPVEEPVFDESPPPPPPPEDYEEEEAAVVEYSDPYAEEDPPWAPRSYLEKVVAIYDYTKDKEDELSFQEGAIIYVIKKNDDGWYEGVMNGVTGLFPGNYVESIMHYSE
UniProt Q8CBW3: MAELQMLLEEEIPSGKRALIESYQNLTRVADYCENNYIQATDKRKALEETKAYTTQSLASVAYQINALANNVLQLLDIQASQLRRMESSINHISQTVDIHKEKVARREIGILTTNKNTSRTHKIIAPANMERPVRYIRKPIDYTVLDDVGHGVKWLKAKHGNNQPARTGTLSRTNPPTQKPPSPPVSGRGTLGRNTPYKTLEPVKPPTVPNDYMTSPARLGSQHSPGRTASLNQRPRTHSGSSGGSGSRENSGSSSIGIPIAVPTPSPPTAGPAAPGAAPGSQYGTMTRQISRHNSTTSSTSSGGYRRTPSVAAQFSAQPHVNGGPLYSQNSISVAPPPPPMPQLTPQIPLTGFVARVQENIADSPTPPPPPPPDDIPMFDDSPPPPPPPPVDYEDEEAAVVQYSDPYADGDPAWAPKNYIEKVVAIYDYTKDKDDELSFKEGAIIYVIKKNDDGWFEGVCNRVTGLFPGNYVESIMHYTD
UniProt P62484: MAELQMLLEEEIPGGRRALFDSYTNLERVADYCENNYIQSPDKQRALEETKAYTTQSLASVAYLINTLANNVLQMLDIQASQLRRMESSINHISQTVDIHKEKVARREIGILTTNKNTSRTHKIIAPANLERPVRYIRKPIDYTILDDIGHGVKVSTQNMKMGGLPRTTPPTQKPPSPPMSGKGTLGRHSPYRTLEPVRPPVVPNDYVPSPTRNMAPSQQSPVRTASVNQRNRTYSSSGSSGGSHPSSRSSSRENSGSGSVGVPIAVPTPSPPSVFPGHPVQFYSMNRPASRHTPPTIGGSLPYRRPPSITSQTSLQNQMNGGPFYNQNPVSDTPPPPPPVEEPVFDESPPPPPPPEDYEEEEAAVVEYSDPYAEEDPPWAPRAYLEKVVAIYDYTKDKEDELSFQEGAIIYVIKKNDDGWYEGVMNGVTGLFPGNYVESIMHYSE
HA–Abi1 (Q8IZP0-6, form named): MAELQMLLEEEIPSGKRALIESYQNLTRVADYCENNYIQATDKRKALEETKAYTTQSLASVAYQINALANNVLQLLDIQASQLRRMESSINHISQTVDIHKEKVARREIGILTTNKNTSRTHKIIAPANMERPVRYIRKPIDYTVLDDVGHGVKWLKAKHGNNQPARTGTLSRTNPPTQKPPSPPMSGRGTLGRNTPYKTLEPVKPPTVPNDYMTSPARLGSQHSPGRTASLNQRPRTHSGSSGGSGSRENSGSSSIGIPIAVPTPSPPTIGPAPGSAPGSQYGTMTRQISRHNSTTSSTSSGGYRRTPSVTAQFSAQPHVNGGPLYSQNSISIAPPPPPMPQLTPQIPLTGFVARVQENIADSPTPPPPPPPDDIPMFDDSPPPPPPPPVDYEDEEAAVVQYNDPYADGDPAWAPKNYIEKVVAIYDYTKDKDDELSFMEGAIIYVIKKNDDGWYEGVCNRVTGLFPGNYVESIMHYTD
UniProt P62259: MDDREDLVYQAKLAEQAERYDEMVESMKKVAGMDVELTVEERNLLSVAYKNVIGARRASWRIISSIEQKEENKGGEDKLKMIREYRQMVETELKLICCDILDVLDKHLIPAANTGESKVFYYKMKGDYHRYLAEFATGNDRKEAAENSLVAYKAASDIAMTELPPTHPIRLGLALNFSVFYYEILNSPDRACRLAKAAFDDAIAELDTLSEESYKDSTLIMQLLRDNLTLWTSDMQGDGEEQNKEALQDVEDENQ
UniProt P68510: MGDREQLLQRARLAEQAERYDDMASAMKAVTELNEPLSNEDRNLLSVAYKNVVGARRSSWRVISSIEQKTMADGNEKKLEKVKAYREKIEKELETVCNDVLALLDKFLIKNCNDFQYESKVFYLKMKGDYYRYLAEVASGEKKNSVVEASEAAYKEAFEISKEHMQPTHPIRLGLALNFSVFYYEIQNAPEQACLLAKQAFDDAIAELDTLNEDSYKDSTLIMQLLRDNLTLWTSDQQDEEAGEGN

Assays:
Caskin2-FL–GFP (human) [1] = molecular target: Caskin2-FL–GFP (human) (UniProt Q8WXE0); test: affinity purification with mass spectrometry; GFP-Trap of Caskin2–GFP stably expressed in HaCaT cells; label-free quantitation
Caskin2-FL–GFP (human) [2] = molecular target: Caskin2-FL–GFP (human) (UniProt Q8WXE0); test: affinity purification with mass spectrometry; GFP-Trap of Caskin2-FL–GFP (GFP as control) stably expressed in GE11tetONβ1 cells; label-free quantitation
Caskin2-FL–GFP (human) [3] = molecular target: Caskin2-FL–GFP (human) (UniProt Q8WXE0); test: affinity purification with mass spectrometry; GFP-Trap of Caskin2-FL–GFP against Caskin2-PRR4A–GFP, transiently expressed in COS-7 cells (same samples as the co-IP with HA–Abi1); label-free quantitation

binding (Caskin2-FL–GFP (human) [2]) | Substance | further results
– | ABI2 (endogenous, HaCaT cells) (from UniProt Q9NYB9 1-513) | binding (Caskin2-FL–GFP (human) [1]): binds
binds | Abi1 (endogenous, GE11 cells) (from UniProt Q8CBW3 1-481) | –
binds | Abi2 (endogenous, GE11 cells) (from UniProt P62484 1-446) | –
– | HA–Abi1 (from UniProt Q8IZP0-6 1-480) | binding (Caskin2-FL–GFP (human) [3]): binds
binds | Ywhae (endogenous, GE11 cells) (from UniProt P62259 1-255) | –
binds | Ywhah (endogenous, GE11 cells) (from UniProt P68510 1-246) | –
